No constants are given. Whether binding was seen depends on the method and setting. Some entries that bind do so weakly or less than the wild type.
Assays:
[1] = biological target: human antizyme (AZ), wild type (human) (UniProt P54368); assay: condition: AZ 0.25 mg/ml, CCND1(155-295) 0.35 mg/ml, molar ratio 1; AUC; sedimentation velocity, size distribution of mixtures at molar ratio AZ/CCND1 of 1; 30 mM Tris-HCl pH 7.4, 50 mM NaCl, 20°C; no constant fitted; both purified
[2] = biological target: human antizyme (AZ), wild type (human) (UniProt P54368); assay: AUC; sedimentation velocity, size distribution of AZ with ODC (or AZI) and CCND1, pre-incubated in either order or co-incubated; molar ratio of AZ to each protein 1; 30 mM Tris-HCl pH 7.4, 50 mM NaCl, 20°C; both purified

By UniProt entry, the sequences of proteins in these tests, tags left out. Residues count along the entry.
UniProt P54368: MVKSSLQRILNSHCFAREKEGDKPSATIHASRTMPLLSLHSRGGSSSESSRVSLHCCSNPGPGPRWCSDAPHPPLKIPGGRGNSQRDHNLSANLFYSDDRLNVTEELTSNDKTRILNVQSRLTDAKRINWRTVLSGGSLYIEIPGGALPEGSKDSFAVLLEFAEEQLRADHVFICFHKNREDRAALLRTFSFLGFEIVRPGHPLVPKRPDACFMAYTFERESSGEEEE
UniProt P24385, residues 155-295: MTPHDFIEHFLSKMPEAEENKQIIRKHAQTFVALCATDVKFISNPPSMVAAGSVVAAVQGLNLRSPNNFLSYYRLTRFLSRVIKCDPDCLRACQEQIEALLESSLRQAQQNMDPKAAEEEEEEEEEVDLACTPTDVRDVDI
UniProt O14977: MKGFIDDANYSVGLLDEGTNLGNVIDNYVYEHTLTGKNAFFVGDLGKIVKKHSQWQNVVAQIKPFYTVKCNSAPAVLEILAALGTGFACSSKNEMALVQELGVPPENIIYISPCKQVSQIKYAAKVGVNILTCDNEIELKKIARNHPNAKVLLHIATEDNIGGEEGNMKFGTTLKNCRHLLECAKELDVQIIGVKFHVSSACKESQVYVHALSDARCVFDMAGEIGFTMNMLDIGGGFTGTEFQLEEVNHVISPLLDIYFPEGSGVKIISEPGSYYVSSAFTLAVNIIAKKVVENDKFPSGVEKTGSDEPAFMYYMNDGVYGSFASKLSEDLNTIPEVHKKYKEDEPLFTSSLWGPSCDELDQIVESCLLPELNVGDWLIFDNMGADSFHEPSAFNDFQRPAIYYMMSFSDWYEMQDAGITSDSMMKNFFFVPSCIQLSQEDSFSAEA

C-terminal CCND1 peptide CCND1(155-295) (from UniProt P24385 155-295) (domain or fragment)
binding [1]: no binding

human antizyme inhibitor (AZI) (from UniProt O14977 1-448)
binding [2]: binds

— paper PMC4695161
